From patent publication US20230288411A1 (SYSMEX CORPORATION, priority 2020, published 2023)

Assay: Evaluation of influence of D-biotin on TSH measurement system in ELISA method
Conditions: 0, 1, 10 or 100 ng/mL D-biotin added to specimen (TSH calibrator C3); signal at 0 ng/mL taken as 100%; immobilized plate with matching biotin-labeled TSH antibody

Substance: natural core streptavidin: commercially available tetrameric natural core streptavidin (manufactured by Roche) [reference compound]
- effect of D-biotin addition on TSH ELISA signal: signal decreased depending on the addition concentration of D-biotin

Substance: D-streptavidin: tetrameric polypeptide of 13th to 139th amino acids of SEQ ID NO: 1 composed of D-amino acid residues
- effect of D-biotin addition on TSH ELISA signal: the effect due to the addition of D-biotin was hardly observed
